# At least one compound was matched to its structure with a doubt left.
# Tests used:
# host DNA synthesis = details: administration of AZT; cited from earlier work
# HIV [1] = details: HIV infections; cited from earlier work
# HIV [2] = experiment: HIV antiviral activity with addition delayed after infection; format: cell-based; details: after about four hours after infection
structure (smiles),measurement,setting,value
"Cc1cn([C@H]2C[C@H](N=[N+]=[N-])[C@@H](CO)O2)c(=O)[nH]c1=O [AZT, Azidothymidine]",effect on host DNA synthesis,host DNA synthesis,inhibition of host DNA synthesis
same,clinical success,HIV [1],some clinical success
same,loss of effectiveness after infection,HIV [2],no longer effective after about four hours after infection

# From patent publication US5268389A, “Thiocarboxylate ester compounds compositions containing the same” (priority 1990, dated 1993)
